The test system of the experiment is CD2F1 mice, nontumored, toxicity/survival. Put plainly: NCI In Vivo Anticancer Drug Screen. Data for tumor model Nontumored Animals (Toxicity Test) in CD2F1 (CDF1) mice.
The mark [1] stands for this setting: dose: 1.0 mg/kg/injection, schedule: Q01DX001 (ip), vehicle: DMSO.
Where [2] appears, read: dose: 10.0 mg/kg/injection, schedule: Q01DX001 (ip), vehicle: DMSO.
Setting [3] is: dose: 100.0 mg/kg/injection, schedule: Q01DX001 (ip), vehicle: DMSO.

Shown are survivors of the treated group in tumour-free mice. Counts of survivors are from the toxicity check (mostly the fifth day) where no day follows; animals may have died later. Schedules are NCI's codes, read here as Q, the interval in days (D) or hours (H), X, the number of doses. Some entries were tested several times; the values are given in rising order. Brackets with × count equal records among those shown.

Consider `O=NN(CCCl)C(=O)NC1CCCCC1`, for which the survivor count is, setting by setting: (dose: 4.0 mg/kg/injection, schedule: Q04DX003 (ip), vehicle: saline + alcohol) 4 of 4; (dose: 8.0 mg/kg/injection, schedule: Q04DX003 (ip), vehicle: saline + alcohol) 4 of 4; (dose: 16.0 mg/kg/injection, schedule: Q04DX003 (ip), vehicle: saline + alcohol) 4 of 4; (dose: 24.0 mg/kg/injection, schedule: Q01DX001 (ip), vehicle: distilled water + Tween-80 + alcohol) 4 of 4; (dose: 27.0 mg/kg/injection, schedule: Q01DX001 (ip), vehicle: carboxymethylcellulose (CMC)) 10 of 10; (dose: 32.0 mg/kg/injection, schedule: Q04DX003 (ip), vehicle: saline + alcohol) 4 of 4. For the same compound, the survivor count by setting is: (dose: 40.0 mg/kg/injection, schedule: Q01DX001 (ip), vehicle: carboxymethylcellulose (CMC)) 10 of 10; (dose: 40.0 mg/kg/injection, schedule: Q01DX001 (ip), vehicle: distilled water + Tween-80 + alcohol) 4 of 4; (dose: 50.0 mg/kg/injection, schedule: Q01DX001 (ip), vehicle: carboxymethylcellulose (CMC)) 10 of 10; (dose: 50.0 mg/kg/injection, schedule: Q04DX003 (ip), vehicle: Klucel (hydroxypropylcellulose) (HPC)) 10 of 10; (dose: 67.0 mg/kg/injection, schedule: Q01DX001 (ip), vehicle: distilled water + Tween-80 + alcohol) 4 of 4.

For `O=CC(NC(=O)N(CCCl)N=O)C(O)C(O)C(O)CO` (stereo not given), the survivor count was 10 of 10 and 6 of 6 (dose: 7.0 mg/kg/injection, schedule: Q01DX001 (ip), vehicle: saline); 8 of 8 (dose: 7.5 mg/kg/injection, schedule: Q01DX001 (ip), vehicle: saline); 10 of 10 and 6 of 6 (dose: 11.0 mg/kg/injection, schedule: Q01DX001 (ip), vehicle: saline); 8 of 8 (dose: 15.0 mg/kg/injection, schedule: Q01DX001 (ip), vehicle: saline); 10 of 10 (2×) and 6 of 6 (2×) (dose: 16.0 mg/kg/injection, schedule: Q01DX001 (ip), vehicle: saline); 10 of 10 (dose: 20.0 mg/kg/injection, schedule: Q01DX001 (ip), vehicle: saline). Besides, the survivor count was 10 of 10, 6 of 6 (2×), 9 of 9 (dose: 24.0 mg/kg/injection, schedule: Q01DX001 (ip), vehicle: saline); 4 of 4 (dose: 25.0 mg/kg/injection, schedule: Q01DX001 (ip), vehicle: saline); 10 of 10 (dose: 28.0 mg/kg/injection, schedule: Q01DX001 (ip), vehicle: saline); 8 of 8 (dose: 30.0 mg/kg/injection, schedule: Q01DX001 (ip), vehicle: saline); 8 of 10, 10 of 10, 6 of 6 (2×) (dose: 36.0 mg/kg/injection, schedule: Q01DX001 (ip), vehicle: saline); 4 of 4 (dose: 41.6 mg/kg/injection, schedule: Q01DX001 (ip), vehicle: saline). Further, the survivor count runs as follows: (dose: 54.0 mg/kg/injection, schedule: Q01DX001 (ip), vehicle: saline) 10 of 10 and 6 of 6; (dose: 60.0 mg/kg/injection, schedule: Q01DX001 (ip), vehicle: saline) 8 of 8; (dose: 69.4 mg/kg/injection, schedule: Q01DX001 (ip), vehicle: saline) 4 of 4; (dose: 81.0 mg/kg/injection, schedule: Q01DX001 (ip), vehicle: saline) 10 of 10 and 6 of 6; (dose: 120.0 mg/kg/injection, schedule: Q01DX001 (ip), vehicle: saline) 10 of 10 and 6 of 6.

Regarding `COc1cc2c3c(c1)-c1c(ccc(OC)c1OC)CC3N(CCN(CCCl)CCCl)CC2` (stereo not given), the survivor count is given as 2 of 2 under setting [1], 2 of 2 under setting [2] and 0 of 2 under setting [3].

Turning to `CC(=O)Nc1nc(Br)c2ccccc2c1-c1ccc(N(CCCl)CCCl)cc1`, the survivor count is, setting by setting: under setting [1], 2 of 2; under setting [2], 2 of 2; under setting [3], 2 of 2.

Turning to `CN(N=O)C(N)=O`, the survivor count (dose: 36.0 mg/kg/injection, schedule: Q04DX003 (ip), vehicle: saline + alcohol) is recorded as 4 of 4; the survivor count (dose: 60.0 mg/kg/injection, schedule: Q04DX003 (ip), vehicle: saline + alcohol) is recorded as 4 of 4; the survivor count (dose: 100.0 mg/kg/injection, schedule: Q04DX003 (ip), vehicle: saline + alcohol) is 4 of 4.

Take `O=c1[nH]c(=O)n(C2CC(O)C(CO)O2)cc1F` (stereo not given): the survivor count runs as follows: (dose: 15.6 mg/kg/injection, schedule: Q01DX005 (ip), vehicle: saline) 8 of 8; (dose: 15.6 mg/kg/injection, schedule: Q01DX009 (ip), vehicle: saline) 8 of 8; (dose: 15.6 mg/kg/injection, schedule: Q03HX008 (ip), vehicle: saline) 10 of 10; (dose: 25.0 mg/kg/injection, schedule: Q03HX008 (ip), vehicle: saline) 10 of 10; (dose: 31.3 mg/kg/injection, schedule: Q01DX005 (ip), vehicle: saline) 8 of 8; (dose: 31.3 mg/kg/injection, schedule: Q01DX009 (ip), vehicle: saline) 8 of 8. Moreover, the survivor count (dose: 31.3 mg/kg/injection, schedule: Q02DX005 (ip), vehicle: saline) was 8 of 8; the survivor count (dose: 31.3 mg/kg/injection, schedule: Q03HX008 (ip), vehicle: saline) is listed as 10 of 10; the survivor count (dose: 31.3 mg/kg/injection, schedule: Q04DX003 (ip), vehicle: saline) is listed as 8 of 8; the survivor count (dose: 50.0 mg/kg/injection, schedule: Q03HX008 (ip), vehicle: saline) is given as 10 of 10; the survivor count (dose: 62.5 mg/kg/injection, schedule: Q01DX001 (ip), vehicle: saline) is 8 of 8; the survivor count (dose: 62.5 mg/kg/injection, schedule: Q01DX005 (ip), vehicle: saline) is 8 of 8. Besides, the survivor count is reported as 8 of 8 (dose: 62.5 mg/kg/injection, schedule: Q01DX009 (ip), vehicle: saline); 8 of 8 (dose: 62.5 mg/kg/injection, schedule: Q02DX005 (ip), vehicle: saline); 10 of 10 (dose: 62.5 mg/kg/injection, schedule: Q03HX008 (ip), vehicle: saline); 8 of 8 (dose: 62.5 mg/kg/injection, schedule: Q04DX003 (ip), vehicle: saline); 10 of 10 (dose: 100.0 mg/kg/injection, schedule: Q03HX008 (ip), vehicle: saline); 8 of 8 (dose: 125.0 mg/kg/injection, schedule: Q01DX001 (ip), vehicle: saline). The survivor count is 8 of 8 (dose: 125.0 mg/kg/injection, schedule: Q01DX005 (ip), vehicle: saline); 8 of 8 (dose: 125.0 mg/kg/injection, schedule: Q01DX009 (ip), vehicle: saline); 8 of 8 (dose: 125.0 mg/kg/injection, schedule: Q02DX005 (ip), vehicle: saline); 9 of 10 (dose: 125.0 mg/kg/injection, schedule: Q03HX008 (ip), vehicle: saline); 8 of 8 (dose: 125.0 mg/kg/injection, schedule: Q04DX003 (ip), vehicle: saline); 10 of 10 (dose: 200.0 mg/kg/injection, schedule: Q03HX008 (ip), vehicle: saline). The survivor count is recorded as 8 of 8 (dose: 250.0 mg/kg/injection, schedule: Q01DX001 (ip), vehicle: saline); 8 of 8 (dose: 250.0 mg/kg/injection, schedule: Q01DX005 (ip), vehicle: saline); 8 of 8 (dose: 250.0 mg/kg/injection, schedule: Q01DX009 (ip), vehicle: saline); 8 of 8 (dose: 250.0 mg/kg/injection, schedule: Q02DX005 (ip), vehicle: saline); 10 of 10 (dose: 250.0 mg/kg/injection, schedule: Q03HX008 (ip), vehicle: saline); 8 of 8 (dose: 250.0 mg/kg/injection, schedule: Q04DX003 (ip), vehicle: saline). In addition, the survivor count is 10 of 10 (dose: 400.0 mg/kg/injection, schedule: Q03HX008 (ip), vehicle: saline); 8 of 8 (dose: 500.0 mg/kg/injection, schedule: Q01DX001 (ip), vehicle: saline); 8 of 8 (dose: 500.0 mg/kg/injection, schedule: Q02DX005 (ip), vehicle: saline); 8 of 8 (dose: 500.0 mg/kg/injection, schedule: Q04DX003 (ip), vehicle: saline); 8 of 8 (dose: 1000.0 mg/kg/injection, schedule: Q01DX001 (ip), vehicle: saline).

Turning to `CC(=O)Nc1ncc2ccccc2c1-c1ccc(N(CCOS(=O)(=O)c2ccc(C)cc2)CCOS(=O)(=O)c2ccc(C)cc2)cc1`, the survivor count reads like this: (dose: 1.0 mg/kg/injection, schedule: Q01DX001 (ip), vehicle: other) 2 of 2; (dose: 10.0 mg/kg/injection, schedule: Q01DX001 (ip), vehicle: other) 2 of 2; (dose: 100.0 mg/kg/injection, schedule: Q01DX001 (ip), vehicle: other) 2 of 2.

(Values after PubChem BioAssay AID188 (DTP/NCI, 2004).)
